B1: S100A11 (S100 Ca^2+-binding protein A11) (protein, UniProt P31949 1-105)
chain: MAKISSPTETERCIESLIAVFQKYAGKDGYNYTLSKTEFLSFMNTELAAFTKNQKDPGVLDRMMKKLDTNSDGQLDFSEFLNLIGGLAMACHDSFLKAVPSQKRT
B2: NUMB (protein, UniProt P49757 1-651)
chain: MNKLRQSFRRKKDVYVPEASRPHQWQTDEEGVRTGKCSFPVKYLGHVEVDESRGMHICEDAVKRLKAERKFFKGFFGKTGKKAVKAVLWVSADGLRVVDEKTKDLIVDQTIEKVSFCAPDRNFDRAFSYICRDGTTRRWICHCFMAVKDTGERLSHAVGCAFAACLERKQKREKECGVTATFDASRTTFTREGSFRVTTATEQAEREEIMKQMQDAKKAETDKIVVGSSVAPGNTAPSPSSPTSPTSDATTSLEMNNPHAIPRRHAPIEQLARQGSFRGFPALSQKMSPFKRQLSLRINELPSTMQRKTDFPIKNAVPEVEGEAESISSLCSQITNAFSTPEDPFSSAPMTKPVTVVAPQSPTFQANGTDSAFHVLAKPAHTALAPVAMPVRETNPWAHAPDAANKEIAATCSGTEWGQSSGAASPGLFQAGHRRTPSEADRWLEEVSKSVRAQQPQASAAPLQPVLQPPPPTAISQPASPFQGNAFLTSQPVPVGVVPALQPAFVPAQSYPVANGMPYPAPNVPVVGITPSQMVANVFGTAGHPQAAHPHQSPSLVRQQTFPHYEASSATTSPFFKPPAQHLNGSAAFNGVDDGRLASADRHTEVPTGTCPVDPFEAQWAALENKSKQRTNPSPTNPFSSDLQKTFEIEL
B3: Annexin A1 (ANXA1) (protein, UniProt P04083 1-346)
chain: MAMVSEFLKQAWFIENEEQEYVQTVKSSKGGPGSAVSPYPTFNPSSDVAALHKAIMVKGVDEATIIDILTKRNNAQRQQIKAAYLQETGKPLDETLKKALTGHLEEVVLALLKTPAQFDADELRAAMKGLGTDEDTLIEILASRTNKEIRDINRVYREELKRDLAKDITSDTSGDFRNALLSLAKGDRSEDFGVNEDLADSDARALYEAGERRKGTDVNVFNTILTTRSYPQLRRVFQKYTKYSKHDMNKVLDLELKGDIEKCLTAIVKCATSKPAFFAEKLHQAMKGVGTRHKALIRIMVSRSEIDMNDIKAFYQKMYGISLCQAILDETKGDYEKILVALCGGN
B4: Serum Amyloid A-1 protein (SAA1) (protein, UniProt P0DJI8 19-122)
chain: RSFFSFLGEAFDGARDMWRAYSDMREANYIGSDKYFHARGNYDAAKRGPGGAWAAEVITDARENIQRFFGHGAEDSLADQAANEWGRSGKDPNHFRPAGLPEKY
B5: INSC (protein, UniProt Q1MX18 1-579)
chain: MRRPPGNGEAASEGPGGWGLWGVQESRRLCCAGHDRCKQALLQIGINMMALPGGRHLDSVTLPGQRLHLMQVDSVQRWMEDLKLMTECECMCVLQAKPISLEEDAQGDLILAGGPGPGDPLQLLLKRGWVISTELRRIGQKLAQDRWARVHSMSVRLTCHARSMVSEYSAVSRNSLKEMGEIEKLLMEKCSELSAVTERCLQVENEHVLKSMKACVSETLSMLGQHFGQLLELALTREVQALVRKIDASDNIYTTESTTGNLFSLTQEGAPLCRIIAKEGGVVALFKVCRQDSFRCLYPQALRTLASICCVEEGVHQLEKVDGVLCLADILTDNSHSEATRAEAAAVVAQVTSPHLPVTQHLSSFLESMEEIVTALVKLCQEASSGEVFLLASAALANITFFDTMACEMLLQLNAIRVLLEACSDKQRVDTPYTRDQIVTILANMSVLEQCASDIIQENGVQLIMGMLSEKPRSGTPAEVAACERVQQKAAVTLARLSRDPDVAREAVRLSCMSRLIELCRSPSERNSSDAVLVACLAALRRLAGVCPEGLQDSDFQQLVQPRLVDSFLLCSNMEESFV
B6: HAUS6 (protein, UniProt Q7Z4H7 1-955)
chain: MSSASVTAFEKEHLWMYLQALGFEPGPATIACGKIVSHTHLGVNMFDKLNRDAFHIISYFLFQVLDQSLTKEVFKFCWPPFDQKSDTEFRKHCCEWIKRISGECGSSFPQVVGSLFLSPGGPKFIHLMYHFARFVAMKYIKSNSKNSSHHFVETFNIKPQDLHKCIARCHFARSRFLQILQRQDCVTQKYQENAQLSVKQVRNLRSECIGLENQIKKMEPYDDHSNMEEKIQKVRSLWASVNETLMFLEKEREVVSSVLSLVNQYALDGTNVAINIPRLLLDKIEKQMFQLHIGNVYEAGKLNLLTVIQLLNEVLKVMKYERCQADQARLTVDLHYLEKETKFQKERLSDLKHMRYRIKDDLTTIRHSVVEKQGEWHKKWKEFLGLSPFSLIKGWTPSVDLLPPMSPLSFDPASEEVYAKSILCQYPASLPDAHKQHNQENGCRGDSDTLGALHDLANSPASFLSQSVSSSDRNSVTVLEKDTKMGTPKEKNEAISKKIPEFEVENSPLSDVAKNTESSAFGGSLPAKKSDPFQKEQDHLVEEVARAVLSDSPQLSEGKEIKLEELIDSLGSNPFLTRNQIPRTPENLITEIRSSWRKAIEMEENRTKEPIQMDAEHREVLPESLPVLHNQREFSMADFLLETTVSDFGQSHLTEEKVISDCECVPQKHVLTSHIDEPPTQNQSDLLNKKVICKQDLECLAFTKLSETSRMETFSPAVGNRIDVMGGSEEEFMKILDHLEVSCNKPSTNKTMLWNSFQISSGISSKSFKDNDFGILHETLPEEVGHLSFNSSSSSEANFKLEPNSPMHGGTLLEDVVGGRQTTPESDFNLQALRSRYEALKKSLSKKREESYLSNSQTPERHKPELSPTPQNVQTDDTLNFLDTCDLHTEHIKPSLRTSIGERKRSLSPLIKFSPVEQRLRTTIACSLGELPNLKEEDILNKSLDAKEPPSDLTR

Protein sequences, listed by entry. Tags and fused reporters are not part of them.
UniProt Q7Z460: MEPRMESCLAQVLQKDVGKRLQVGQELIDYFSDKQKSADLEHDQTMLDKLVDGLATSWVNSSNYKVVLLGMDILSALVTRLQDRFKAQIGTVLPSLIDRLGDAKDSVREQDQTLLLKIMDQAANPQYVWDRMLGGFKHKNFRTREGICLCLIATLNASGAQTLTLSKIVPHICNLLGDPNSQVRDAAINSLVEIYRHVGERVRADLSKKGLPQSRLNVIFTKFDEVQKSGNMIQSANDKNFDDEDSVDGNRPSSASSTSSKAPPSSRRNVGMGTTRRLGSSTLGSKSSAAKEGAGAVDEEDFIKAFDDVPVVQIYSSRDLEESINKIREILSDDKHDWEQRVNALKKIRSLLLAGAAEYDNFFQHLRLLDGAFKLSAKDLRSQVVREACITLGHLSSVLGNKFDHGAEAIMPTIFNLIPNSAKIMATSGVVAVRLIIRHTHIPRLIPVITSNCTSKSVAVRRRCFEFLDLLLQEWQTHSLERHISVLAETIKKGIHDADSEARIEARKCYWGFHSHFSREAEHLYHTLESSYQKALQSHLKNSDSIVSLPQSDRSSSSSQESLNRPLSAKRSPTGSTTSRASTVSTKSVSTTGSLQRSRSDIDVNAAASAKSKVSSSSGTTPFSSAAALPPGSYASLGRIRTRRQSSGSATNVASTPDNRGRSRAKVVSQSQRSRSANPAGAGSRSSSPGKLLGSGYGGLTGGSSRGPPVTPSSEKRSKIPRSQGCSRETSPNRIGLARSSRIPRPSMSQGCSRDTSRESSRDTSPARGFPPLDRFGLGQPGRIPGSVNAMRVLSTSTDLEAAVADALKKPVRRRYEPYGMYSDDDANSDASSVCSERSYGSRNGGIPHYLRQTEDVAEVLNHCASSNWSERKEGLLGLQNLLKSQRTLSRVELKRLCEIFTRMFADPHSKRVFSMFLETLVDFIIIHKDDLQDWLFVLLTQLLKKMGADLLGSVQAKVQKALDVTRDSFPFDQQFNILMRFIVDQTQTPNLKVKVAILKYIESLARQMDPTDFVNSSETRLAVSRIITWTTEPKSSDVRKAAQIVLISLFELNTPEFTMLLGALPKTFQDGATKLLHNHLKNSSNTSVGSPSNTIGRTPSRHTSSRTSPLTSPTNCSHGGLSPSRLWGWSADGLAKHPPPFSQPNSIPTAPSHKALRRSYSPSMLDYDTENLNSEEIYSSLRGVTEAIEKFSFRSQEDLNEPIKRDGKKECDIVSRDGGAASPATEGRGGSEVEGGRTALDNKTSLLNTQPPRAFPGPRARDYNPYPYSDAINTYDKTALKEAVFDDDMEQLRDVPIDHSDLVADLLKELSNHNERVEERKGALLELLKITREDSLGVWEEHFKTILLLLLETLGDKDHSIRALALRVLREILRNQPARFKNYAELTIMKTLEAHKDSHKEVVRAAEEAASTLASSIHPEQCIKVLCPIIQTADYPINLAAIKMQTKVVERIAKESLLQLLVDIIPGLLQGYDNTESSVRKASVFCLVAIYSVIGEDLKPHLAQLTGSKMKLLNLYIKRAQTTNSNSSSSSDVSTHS
UniProt Q14204: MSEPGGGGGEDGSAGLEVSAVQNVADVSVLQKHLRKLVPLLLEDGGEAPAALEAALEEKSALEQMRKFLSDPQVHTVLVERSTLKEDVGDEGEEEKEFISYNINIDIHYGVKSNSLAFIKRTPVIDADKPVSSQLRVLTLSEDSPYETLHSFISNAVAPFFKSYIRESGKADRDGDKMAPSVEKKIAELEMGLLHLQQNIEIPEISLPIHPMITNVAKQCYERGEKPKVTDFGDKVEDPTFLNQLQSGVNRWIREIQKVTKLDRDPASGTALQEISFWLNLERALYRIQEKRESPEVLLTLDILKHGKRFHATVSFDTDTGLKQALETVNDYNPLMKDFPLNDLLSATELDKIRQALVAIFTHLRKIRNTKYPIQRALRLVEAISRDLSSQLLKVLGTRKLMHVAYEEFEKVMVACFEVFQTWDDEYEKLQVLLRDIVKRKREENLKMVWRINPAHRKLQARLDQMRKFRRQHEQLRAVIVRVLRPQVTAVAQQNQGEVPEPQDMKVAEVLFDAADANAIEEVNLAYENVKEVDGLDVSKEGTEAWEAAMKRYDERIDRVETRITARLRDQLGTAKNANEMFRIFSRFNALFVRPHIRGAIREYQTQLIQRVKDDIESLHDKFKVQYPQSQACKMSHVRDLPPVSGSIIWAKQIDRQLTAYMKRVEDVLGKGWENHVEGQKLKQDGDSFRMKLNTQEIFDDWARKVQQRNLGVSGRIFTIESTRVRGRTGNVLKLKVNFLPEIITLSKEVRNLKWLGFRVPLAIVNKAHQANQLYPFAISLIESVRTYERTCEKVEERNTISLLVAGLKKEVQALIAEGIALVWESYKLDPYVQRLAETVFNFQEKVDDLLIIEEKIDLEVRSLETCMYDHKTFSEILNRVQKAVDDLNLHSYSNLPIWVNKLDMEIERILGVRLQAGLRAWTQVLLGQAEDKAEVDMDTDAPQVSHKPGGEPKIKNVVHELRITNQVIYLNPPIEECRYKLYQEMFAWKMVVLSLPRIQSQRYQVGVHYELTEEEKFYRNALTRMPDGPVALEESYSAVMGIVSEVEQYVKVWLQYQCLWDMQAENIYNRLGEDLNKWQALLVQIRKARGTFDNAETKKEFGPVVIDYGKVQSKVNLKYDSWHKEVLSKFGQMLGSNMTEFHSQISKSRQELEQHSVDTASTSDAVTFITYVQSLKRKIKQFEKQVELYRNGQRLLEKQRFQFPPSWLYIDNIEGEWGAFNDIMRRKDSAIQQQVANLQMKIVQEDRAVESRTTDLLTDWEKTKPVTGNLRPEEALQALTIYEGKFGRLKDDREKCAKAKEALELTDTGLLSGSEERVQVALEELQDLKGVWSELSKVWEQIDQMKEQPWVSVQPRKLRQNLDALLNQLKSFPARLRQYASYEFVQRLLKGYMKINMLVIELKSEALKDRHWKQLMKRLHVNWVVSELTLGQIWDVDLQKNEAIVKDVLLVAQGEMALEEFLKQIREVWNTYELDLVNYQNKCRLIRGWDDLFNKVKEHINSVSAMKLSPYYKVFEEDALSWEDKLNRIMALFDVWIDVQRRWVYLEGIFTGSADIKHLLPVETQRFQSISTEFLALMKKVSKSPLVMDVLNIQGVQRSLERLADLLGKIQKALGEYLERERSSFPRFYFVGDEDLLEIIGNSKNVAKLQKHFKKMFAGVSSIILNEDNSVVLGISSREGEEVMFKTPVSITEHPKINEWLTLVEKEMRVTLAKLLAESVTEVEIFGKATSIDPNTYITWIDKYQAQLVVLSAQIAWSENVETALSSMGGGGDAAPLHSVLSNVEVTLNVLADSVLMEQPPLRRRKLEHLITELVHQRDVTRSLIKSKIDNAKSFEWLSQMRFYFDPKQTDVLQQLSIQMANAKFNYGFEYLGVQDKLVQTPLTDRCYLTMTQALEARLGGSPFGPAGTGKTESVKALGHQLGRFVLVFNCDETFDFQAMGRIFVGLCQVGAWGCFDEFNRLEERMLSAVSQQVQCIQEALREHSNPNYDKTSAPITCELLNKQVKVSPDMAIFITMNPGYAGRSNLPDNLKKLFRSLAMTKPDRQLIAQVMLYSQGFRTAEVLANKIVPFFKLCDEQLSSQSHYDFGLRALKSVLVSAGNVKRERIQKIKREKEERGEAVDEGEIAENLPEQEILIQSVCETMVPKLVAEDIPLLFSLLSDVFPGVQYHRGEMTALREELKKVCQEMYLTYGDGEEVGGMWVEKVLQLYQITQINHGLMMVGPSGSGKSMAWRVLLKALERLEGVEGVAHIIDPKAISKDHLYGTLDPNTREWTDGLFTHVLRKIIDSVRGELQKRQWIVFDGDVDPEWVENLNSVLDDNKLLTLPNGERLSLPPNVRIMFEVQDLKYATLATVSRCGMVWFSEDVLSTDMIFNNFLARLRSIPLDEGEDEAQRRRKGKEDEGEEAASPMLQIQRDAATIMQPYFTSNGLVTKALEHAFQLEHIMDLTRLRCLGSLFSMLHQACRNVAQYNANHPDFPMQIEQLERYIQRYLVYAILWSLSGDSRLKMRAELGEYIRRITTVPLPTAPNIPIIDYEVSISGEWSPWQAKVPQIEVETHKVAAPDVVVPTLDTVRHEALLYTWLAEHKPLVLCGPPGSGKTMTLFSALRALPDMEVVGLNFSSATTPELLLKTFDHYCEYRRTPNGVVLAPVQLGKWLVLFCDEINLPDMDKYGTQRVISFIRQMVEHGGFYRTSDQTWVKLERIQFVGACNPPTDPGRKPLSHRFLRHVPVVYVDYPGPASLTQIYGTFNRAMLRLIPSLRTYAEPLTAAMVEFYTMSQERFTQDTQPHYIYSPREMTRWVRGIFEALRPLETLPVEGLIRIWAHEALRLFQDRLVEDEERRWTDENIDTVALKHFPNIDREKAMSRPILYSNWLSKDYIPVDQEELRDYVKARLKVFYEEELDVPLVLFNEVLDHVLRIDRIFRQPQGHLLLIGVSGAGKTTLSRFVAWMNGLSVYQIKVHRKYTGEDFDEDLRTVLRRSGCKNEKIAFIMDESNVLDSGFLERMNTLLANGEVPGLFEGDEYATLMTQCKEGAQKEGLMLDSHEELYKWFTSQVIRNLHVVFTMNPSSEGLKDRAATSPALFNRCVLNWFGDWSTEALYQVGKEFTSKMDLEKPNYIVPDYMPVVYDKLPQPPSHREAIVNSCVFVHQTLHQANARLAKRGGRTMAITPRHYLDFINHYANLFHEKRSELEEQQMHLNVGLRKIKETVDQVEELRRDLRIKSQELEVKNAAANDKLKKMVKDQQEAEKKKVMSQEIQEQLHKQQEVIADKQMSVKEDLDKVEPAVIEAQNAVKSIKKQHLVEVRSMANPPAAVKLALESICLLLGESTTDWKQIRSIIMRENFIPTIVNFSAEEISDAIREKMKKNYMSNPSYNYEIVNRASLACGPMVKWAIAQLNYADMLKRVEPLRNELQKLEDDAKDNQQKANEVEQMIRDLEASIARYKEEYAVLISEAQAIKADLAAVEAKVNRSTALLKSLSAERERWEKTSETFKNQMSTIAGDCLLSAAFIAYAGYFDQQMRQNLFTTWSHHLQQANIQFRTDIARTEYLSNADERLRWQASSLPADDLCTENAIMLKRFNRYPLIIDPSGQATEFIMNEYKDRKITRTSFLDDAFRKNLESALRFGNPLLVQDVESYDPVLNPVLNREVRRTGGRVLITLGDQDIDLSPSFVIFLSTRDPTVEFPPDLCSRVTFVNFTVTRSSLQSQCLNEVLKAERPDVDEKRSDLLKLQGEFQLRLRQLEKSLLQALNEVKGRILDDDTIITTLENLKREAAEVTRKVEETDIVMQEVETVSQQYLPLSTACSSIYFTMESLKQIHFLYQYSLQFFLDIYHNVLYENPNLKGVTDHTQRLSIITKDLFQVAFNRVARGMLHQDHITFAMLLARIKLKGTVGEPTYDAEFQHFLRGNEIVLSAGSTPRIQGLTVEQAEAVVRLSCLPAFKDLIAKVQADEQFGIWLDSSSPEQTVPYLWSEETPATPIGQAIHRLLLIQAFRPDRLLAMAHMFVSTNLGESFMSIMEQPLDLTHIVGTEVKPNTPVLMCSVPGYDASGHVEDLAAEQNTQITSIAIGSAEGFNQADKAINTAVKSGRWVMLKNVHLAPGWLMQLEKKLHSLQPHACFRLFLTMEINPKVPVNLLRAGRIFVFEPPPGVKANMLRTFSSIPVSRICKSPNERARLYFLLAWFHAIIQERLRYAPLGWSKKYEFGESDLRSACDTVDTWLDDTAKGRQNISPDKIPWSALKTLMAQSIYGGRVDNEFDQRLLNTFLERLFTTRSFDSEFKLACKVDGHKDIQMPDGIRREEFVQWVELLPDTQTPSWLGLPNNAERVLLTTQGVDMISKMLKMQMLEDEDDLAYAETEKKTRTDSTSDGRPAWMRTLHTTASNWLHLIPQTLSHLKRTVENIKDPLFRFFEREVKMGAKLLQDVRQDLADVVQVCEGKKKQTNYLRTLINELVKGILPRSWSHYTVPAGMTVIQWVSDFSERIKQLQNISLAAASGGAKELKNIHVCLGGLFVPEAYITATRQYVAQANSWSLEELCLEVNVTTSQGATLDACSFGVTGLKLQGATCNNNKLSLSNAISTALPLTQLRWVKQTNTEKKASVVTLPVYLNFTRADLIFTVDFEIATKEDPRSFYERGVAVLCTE

No constants are given. Whether binding was seen depends on the method and setting. In cells and extracts the contact can be indirect. A yes stands for co-enrichment or nearness to the bait. Other partners may have been found. Tags and fused reporters may be left off the sequences shown.

This test concerns the target T1, GFP-LGN (UniProt P81274).
T1 sequence: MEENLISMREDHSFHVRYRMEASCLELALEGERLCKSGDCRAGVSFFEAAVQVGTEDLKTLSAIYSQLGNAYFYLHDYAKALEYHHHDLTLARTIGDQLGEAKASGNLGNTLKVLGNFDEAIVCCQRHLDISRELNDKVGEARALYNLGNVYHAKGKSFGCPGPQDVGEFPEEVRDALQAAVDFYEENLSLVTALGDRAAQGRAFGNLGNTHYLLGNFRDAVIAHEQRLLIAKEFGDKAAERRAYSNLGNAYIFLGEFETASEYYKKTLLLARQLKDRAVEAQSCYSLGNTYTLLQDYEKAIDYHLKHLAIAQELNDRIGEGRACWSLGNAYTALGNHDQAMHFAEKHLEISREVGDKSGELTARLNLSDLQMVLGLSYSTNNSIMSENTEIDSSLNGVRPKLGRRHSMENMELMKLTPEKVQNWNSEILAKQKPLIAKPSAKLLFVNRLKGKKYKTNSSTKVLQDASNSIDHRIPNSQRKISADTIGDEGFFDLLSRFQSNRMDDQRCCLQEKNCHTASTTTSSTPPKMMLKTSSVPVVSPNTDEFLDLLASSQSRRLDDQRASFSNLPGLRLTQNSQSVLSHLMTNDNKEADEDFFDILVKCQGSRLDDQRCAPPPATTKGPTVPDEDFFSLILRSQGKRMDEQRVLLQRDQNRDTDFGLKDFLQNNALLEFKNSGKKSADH
Kind of test: affinity purification with mass spectrometry; GFP-Trap beads on lysates of MCF-10A cells stably expressing GFP-LGN, arrested in metaphase (RO-3306, then MG-132); mild lysis buffer (50 mM Tris pH 7.4, 150 mM NaCl, 0.5 mM EDTA, 0.5% NP40); on-bead tryptic digestion, LC-MS/MS; proteins in the GFP control and CRAPome contaminants removed.
With CLASP1 (from UniProt Q7Z460 1-1538), the binding result is “binds”.

Turning to “Cyclin B1 (CCNB1) (from UniProt P14635 1-433)”, the binding result is “binds”.

For the molecule “Dynein (DYNC1H1) (from UniProt Q14204 1-4646)”, the binding entry is “binds”.

For EIF3E (from UniProt P60228 1-445), the binding result is on record as “binds”.

As to PAR3 (from UniProt Q8TEW0 1-1356), the binding result is recorded as “binds”.

Regarding “PLK1 (from UniProt P53350 1-603) (enzyme)”, the binding entry is given as “binds”.

Turning to “nuclear mitotic apparatus protein (NuMA) (from UniProt Q14980 1-2115)”, the binding result was “binds”.

With “γ-tubulin (TUBG1) (from UniProt P23258 1-451)”, the binding result was “binds”.

As to B1, the binding entry was “binds”.

Regarding B2, the binding entry is “binds”.

With B3, the binding result is on record as “binds”.

As for B4, the binding entry is “binds”.

Take B5: the binding entry is given as “binds”.

As to B6, the binding result was “binds”.
